The exact form of at least one protein or probe is not confirmed. For part of these data: At least one result comes from cells or an extract, where the contact may be indirect. For part of these data: No signal at the amounts used counts as a negative.
How the values were obtained:
[1] = system: EWS/ATF1 fusion (Homo sapiens); assay: competition with a labelled probe; settings: 100-fold excess unlabeled AP1 used as specificity competitor for EWS/ATF1-CRE complex; protein in a lysate after overexpression
[2] = system: EWS/ATF1 fusion (Homo sapiens); assay: EMSA; settings: 30 C; inhibited by mAb4, supershifted by mAb5; protein in a lysate after overexpression; label: 32P
[3] = target: CREB (Homo sapiens) (UniProt P16220); assay: EMSA; settings: supershifted by MAb1, 3, 4; complex eliminated by sFv4; purified recombinant protein; protein details: E. coli pET-11a, DNA-cellulose purified; label: 32P

Chains of the proteins cited; added tags and fusions are not shown. Chains listed by the source or under a name are the forms on record and can include a tag or linker.
UniProt P16220, other isoform, or with tags, fused parts or gaps: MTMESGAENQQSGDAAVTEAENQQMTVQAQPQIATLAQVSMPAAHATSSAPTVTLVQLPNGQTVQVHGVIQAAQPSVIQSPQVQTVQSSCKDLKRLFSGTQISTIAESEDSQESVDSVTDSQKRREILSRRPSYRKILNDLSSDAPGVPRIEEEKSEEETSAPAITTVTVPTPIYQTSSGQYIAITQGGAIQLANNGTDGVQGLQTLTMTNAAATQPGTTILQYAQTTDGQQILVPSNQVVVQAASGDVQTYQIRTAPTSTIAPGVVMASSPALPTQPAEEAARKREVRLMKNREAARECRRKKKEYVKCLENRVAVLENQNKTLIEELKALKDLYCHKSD
EWS/ATF1 fusion (Homo sapiens), one chain, as listed by the source: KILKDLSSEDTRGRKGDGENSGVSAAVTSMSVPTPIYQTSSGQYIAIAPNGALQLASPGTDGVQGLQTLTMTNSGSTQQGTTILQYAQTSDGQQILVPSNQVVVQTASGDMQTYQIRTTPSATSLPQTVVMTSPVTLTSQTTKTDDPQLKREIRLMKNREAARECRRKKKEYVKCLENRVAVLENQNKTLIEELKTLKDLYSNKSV

## CGCTTGATGAGTCAGCCGGAA (double strand) [AP1 oligonucleotide]
[1]
  binding result: no binding

## AGAGATTGCCTGACGTCAGAGAGCTAG (double strand) [consensus CRE]
[2]
  binding result: binds
[3]
  binding result: binds

Reference: patent US20050214309
